According to the supplement of paper PMC5949888:
Most values lie at the floor of the assay. Slopes are relative: functional sequences can read slightly below zero.

test system: Saccharomyces cerevisiae PS128 hsf1 delta, HSF1(1-493) fusion; experiment: growth estimate (transactivation domain function in HSF1 fusion, heat-shock survival) (a.u. (slope of normalised read count over time)); higher = stronger growth at 37°C, i.e. more transactivation activity; conditions: library: random library
Method: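 Random 60-nt DNA library encoding peptides of up to 20 aa, fused to the C-terminus of yeast HSF1 residues 1-493 (C-terminal TAD deleted) and expressed from the native HSF1 promoter on a CEN plasmid in hsf1-deleted S. cerevisiae PS128. Cells were selected at 37°C on -trp 5-FOA plates for 0, 2, 4, 6 and 8 days and amplicons were sequenced. Growth estimate is the slope of a robust linear fit of total-sum-normalised read counts (normalised to the first time point) over time, using at least 2 replicates. Sequences are classed functional (TAD activity) above a threshold of -0.13, set from stop-codon control sequences.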

IIHRKQSQGV was tested. Which growth estimate did it give?
Its growth estimate is under -0.25.

Which growth estimate does the source give for IILLGKVRLCRFVCDTYI here?
The growth estimate was under -0.25.

Which growth estimate does the source give for IILPKSHLPACALDLCCVSR here?
The growth estimate was under -0.25.

How did the growth estimate turn out when IILWVIQVLAPFVKLTDLR was run?
Its growth estimate is under -0.25.

For IIMGERGKTGSTMGGF, which growth estimate is on record?
Its growth estimate is under -0.25.

With IINWATGRLSA as the substance, how does the growth estimate read?
The growth estimate was under -0.25.

Which growth estimate does the source give for IIREGSTKRLLNGDLNFDPG here?
The growth estimate was under -0.25.

Which growth estimate does the source give for IIRKARGGAIAVPVDLSRNR here?
Its growth estimate is under -0.25.

For IIRRAVRIRRLGVTPTAFQH, which growth estimate is on record?
Its growth estimate is under -0.25.

Which growth estimate does the source give for IIRYSSQKHRYGSGRVVSPE here?
The growth estimate was under -0.25.

Which growth estimate does the source give for IISRFKD here?
The growth estimate was -0.246.

Which growth estimate does the source give for IITA here?
The growth estimate was under -0.25.

With IITVSAGKT as the substance, how does the growth estimate read?
The growth estimate was under -0.25.

How did the growth estimate turn out when IKANRVVDSYRHVRRKASLQ was run?
Its growth estimate is under -0.25.

For IKARLARSTHGSTVL, which growth estimate is on record?
The growth estimate was under -0.25.

For IKESKFTLS, which growth estimate is on record?
The growth estimate was under -0.25.

With IKGANLVPAVWPVVTRSGRG as the substance, how does the growth estimate read?
The growth estimate was under -0.25.

With IKITGGYGLIDPCVGRYCFS as the substance, how does the growth estimate read?
The growth estimate was under -0.25.

Which growth estimate does the source give for IKKGQILRNLERADPGGPTR here?
Its growth estimate is under -0.25.

IKLPASPT was tested. Which growth estimate did it give?
The growth estimate was under -0.25.

How did the growth estimate turn out when IKMV was run?
The growth estimate was under -0.25.

With IKPMLAWFGSNTIGVLPSWF as the substance, how does the growth estimate read?
The growth estimate was under -0.25.

How did the growth estimate turn out when IKQLDQRARENFHNARITLG was run?
Its growth estimate is under -0.25.

How did the growth estimate turn out when IKSSTLGPGLTRNTRVLAIP was run?
The growth estimate was under -0.25.

IKTALRPRSVTD was tested. Which growth estimate did it give?
The growth estimate was under -0.25.

Which growth estimate does the source give for IKWKVRPSPIP here?
Its growth estimate is under -0.25.

How did the growth estimate turn out when ILA was run?
Its growth estimate is under -0.25.

How did the growth estimate turn out when ILADRKTPTFQSVPWTKGD was run?
The growth estimate was under -0.25.

ILAISLRVSRGKRRSPFGEW was tested. Which growth estimate did it give?
The growth estimate was under -0.25.

For ILAMDAYEASVCTVRPLQSF, which growth estimate is on record?
Its growth estimate is -0.219.

With ILAWF as the substance, how does the growth estimate read?
The growth estimate was under -0.25.

ILCASQMGRSWIGQIQIFSL was tested. Which growth estimate did it give?
The growth estimate was under -0.25.

How did the growth estimate turn out when ILCEGSSGLG was run?
The growth estimate was under -0.25.

For ILDRVLRNINGRSWSVSTGL, which growth estimate is on record?
The growth estimate was under -0.25.

With ILEFEIRG as the substance, how does the growth estimate read?
Its growth estimate is under -0.25.

For ILEIAHFAIVCPDNGDRLQR, which growth estimate is on record?
Its growth estimate is under -0.25.

With ILERSRSVFKKVQG as the substance, how does the growth estimate read?
Its growth estimate is under -0.25.

For ILFADCISWVYVNKWDVYCG, which growth estimate is on record?
Its growth estimate is under -0.25.

Which growth estimate does the source give for ILGLAVKVRKICGLPGRKL here?
Its growth estimate is under -0.25.

How did the growth estimate turn out when ILGTAHAQILHKHEVYARQH was run?
Its growth estimate is under -0.25.

With ILLGPVSSSNQLGSGRAARQ as the substance, how does the growth estimate read?
Its growth estimate is under -0.25.

ILLHRVAECYTGS was tested. Which growth estimate did it give?
Its growth estimate is under -0.25.

How did the growth estimate turn out when ILLLH was run?
The growth estimate was under -0.25.

Which growth estimate does the source give for ILLLTGRGVR here?
Its growth estimate is under -0.25.

Which growth estimate does the source give for ILLRGSQGRTGSSARLWQVH here?
The growth estimate was under -0.25.

With ILMEALKNLKVQCPEKASAS as the substance, how does the growth estimate read?
Its growth estimate is under -0.25.

For ILMGALSPAAMVNVGGEWRS, which growth estimate is on record?
Its growth estimate is under -0.25.

With ILPLSSYAGTGTAARSPGYQ as the substance, how does the growth estimate read?
The growth estimate was under -0.25.

For ILQRSNSRRLQTDKTRKVCF, which growth estimate is on record?
Its growth estimate is under -0.25.

Which growth estimate does the source give for ILQRTVGGSEVFRVRRGTTA here?
The growth estimate was under -0.25.

For ILQWFSFRLYI, which growth estimate is on record?
Its growth estimate is under -0.25.

Which growth estimate does the source give for ILRGP here?
Its growth estimate is under -0.25.

For ILRSNGDPSHVRHII, which growth estimate is on record?
The growth estimate was under -0.25.

For ILSCGGRVHQMARSALPFAW, which growth estimate is on record?
Its growth estimate is under -0.25.

How did the growth estimate turn out when ILTAHQSQLVPCEVLATCDG was run?
Its growth estimate is under -0.25.

How did the growth estimate turn out when ILTKCVQCPLERTRHKPLRA was run?
The growth estimate was under -0.25.

How did the growth estimate turn out when ILTSCPMALGKCSRGNNGGA was run?
The growth estimate was under -0.25.

ILVAGILP was tested. Which growth estimate did it give?
Its growth estimate is under -0.25.

Which growth estimate does the source give for ILVCKRGGVVKSRKLSSGPG here?
Its growth estimate is under -0.25.

For ILWEILLARSNFRWRPFASI, which growth estimate is on record?
Its growth estimate is under -0.25.

For ILYMVWRILSLTIVRNWLRL, which growth estimate is on record?
The growth estimate was under -0.25.

Which growth estimate does the source give for IMENKHGFD here?
Its growth estimate is under -0.25.

How did the growth estimate turn out when IMENLRG was run?
The growth estimate was under -0.25.

For IMGSGLE, which growth estimate is on record?
The growth estimate was under -0.25.

Which growth estimate does the source give for IMIV here?
Its growth estimate is under -0.25.

How did the growth estimate turn out when IMPIYVGYFRLGKLLDAEPL was run?
The growth estimate was under -0.25.

With IMQVREIFR as the substance, how does the growth estimate read?
The growth estimate was under -0.25.

Which growth estimate does the source give for IMRDECYN here?
Its growth estimate is under -0.25.

IMSQRIY was tested. Which growth estimate did it give?
The growth estimate was under -0.25.

For IMTF, which growth estimate is on record?
The growth estimate was under -0.25.

IMVKCYPLTMPRRWKQTGYD was tested. Which growth estimate did it give?
Its growth estimate is under -0.25.

IMVNEIFTHAPFVELSECSP was tested. Which growth estimate did it give?
Its growth estimate is under -0.25.

Which growth estimate does the source give for IMYCSQVSGRPYNL here?
Its growth estimate is under -0.25.

With INASMGRRQGLCGVCQVPGE as the substance, how does the growth estimate read?
The growth estimate was under -0.25.

With INAVENSGSGSTCNT as the substance, how does the growth estimate read?
The growth estimate was under -0.25.

Which growth estimate does the source give for INGPKWILVYSGPAGVGL here?
Its growth estimate is under -0.25.

Which growth estimate does the source give for INGSGLDVGNQHAYRPT here?
Its growth estimate is under -0.25.

INLAYGELEAQFR was tested. Which growth estimate did it give?
The growth estimate was under -0.25.

With INLRRASDTRYRIP as the substance, how does the growth estimate read?
Its growth estimate is under -0.25.

How did the growth estimate turn out when INLSLAVGQQTSQT was run?
Its growth estimate is under -0.25.

Which growth estimate does the source give for INQVPRTQNDSNPLNPGWHL here?
The growth estimate was under -0.25.

INRALPHSGTRLRVKAPTWE was tested. Which growth estimate did it give?
Its growth estimate is under -0.25.

For INRSVS, which growth estimate is on record?
Its growth estimate is under -0.25.

For INRTICGDR, which growth estimate is on record?
The growth estimate was under -0.25.

Which growth estimate does the source give for INSVLQSDFSRR here?
The growth estimate was under -0.25.

With INVDRC as the substance, how does the growth estimate read?
The growth estimate was under -0.25.

Which growth estimate does the source give for INVGFLAGHSGNVRTKPE here?
Its growth estimate is under -0.25.

How did the growth estimate turn out when IPAPRQS was run?
Its growth estimate is under -0.25.

IPASVEN was tested. Which growth estimate did it give?
The growth estimate was under -0.25.

For IPCEV, which growth estimate is on record?
The growth estimate was -0.244.

For IPDK, which growth estimate is on record?
The growth estimate was under -0.25.

IPDPVCALCSGSLSVRKFEL was tested. Which growth estimate did it give?
Its growth estimate is under -0.25.

For IPDVEGGDARSSTSILLTAA, which growth estimate is on record?
Its growth estimate is under -0.25.

Which growth estimate does the source give for IPEDLRLIHM here?
Its growth estimate is -0.239.

How did the growth estimate turn out when IPEKLGGACQETQYSVIRIY was run?
The growth estimate was under -0.25.
